Reference: patent US20160201132A1, “GENE EXPRESSION BIOMARKERS OF LAQUINIMOD RESPONSIVENESS” (Teva Pharmaceutical Industries Ltd., priority 2013, published 2016)
The source gives many values for each of these; only a part stands here.

System: PBMC of RRMS patients
Assay: Gene expression microarray analysis (HG-U133A-2) of PBMC from RRMS patients treated with LAQ, ancillary study to ALLEGRO
Assay type: in vivo, human
Settings: for Fold-Change (4.0 vs. 0.0): after six months of treatment; for Fold-Change (1.0 vs. 0.0): one month of treatment
Text: The goal of this ancillary study was to characterize gene expression changes and corresponding biological mechanisms induced in PBMC of RRMS patients by LAQ treatment. According to ALLEGRO clinical trial inclusion criteria, 25 patients were randomly assigned to receive LAQ (n=13, age 38.8±2.3 years, female/male ratio: 8/5) or placebo (n=12, age 37.2±3.4 years, female/male ratio: 8/4).
Peripheral blood samples were obtained from RRMS patients at baseline before start of LAQ treatment or placebo, after 0, 1, 6 and 24 month of treatment (visit 0, 1, 6 and 7 according to ALLEGRO clinical trial protocol correspondently) for gene microarray analysis.
Briefly, 1) Peripheral blood mononuclear cells (PBMC) were obtained from RRMS patients that participated in ALLEGRO and were treated daily with 0.6 mg LAQ or placebo. PBMC were subjected for gene expression analysis (HU-133A-2-Affymatrix arrays) at baseline and at 1 and 6 months of LAQ treatment; 2) Data was analyzed by Partek Genomics Solution software. Most informative genes (MIGs) were defined as those that differentiated between groups with p<0.01. Gene functional annotation, enrichment and pathway analysis were performed by Ingenuity software. For each time point, genes that changed in placebo group were excluded from further analysis; and 3) Verification of LAQ related mechanism was performed by Western blot.
PBMC were extracted from 15 ml peripheral blood, separated by Ficoll-Hypaque gradient. Total RNA was extracted using both Trizol (Invitrogen, USA) and Phase-Lock-Gel columns (Eppendorf, Germany) including a DNase digestion step. RNA integrity was assessed by RNA Experion automated electrophoresis system (Bio-Rad Laboratories, Hercules, Calif.).
Probe synthesis using 3 μg total RNA, hybridization, detection, and scanning was performed according to the standard Affymetrix, Inc. USA protocols; cDNA was synthesized using the Two-Cycle cDNA Synthesis Kit (Affymetrix, Inc., USA), and in-vitro transcription performed with the GeneChip IVT Labeling Kit (Affymetrix, Inc., USA). The biotin-labeled IVT-RNA was hybridized to HG-U133A-2 arrays containing 18,400 gene transcripts, each corresponding to 14,500 well-annotated human genes, washed in a GeneChip Fluidics Station 450 (Hewlett Packard, USA, GeneArray-™ scanner G2500A) and scanned according to the manufacturer's protocol (Affymetrix, Inc., USA).
Data analysis was performed on Partek Genomics Solution software (www.partek.com; Partek Incorporated, St. Louis, Mo.). Expression values were computed from raw CEL files by applying the Robust Multi-Chip Average (RMA) background correction algorithm. RMA correction included: 1) values background correction; 2) quintile normalization; 3) log 2 transformation; and 4) median polish summarization. The ANOVA, Repeated Measures and correlation analysis implicated in Partek software ware applied to evaluate LAQ effects. Most informative genes MIGs were defined as those that differentiated between experimental groups with p<0.01. All p-values were calculated for False Discovery Rate (FDR) multiple test correction at p=0.05.
Additionally, significance of individual genes was tested by parametric T-test and non parametric Mann-Whitney test using Bootstrapping approach based on repeated permutations of the data with 5% FDR for multiple testing.
Gene functional annotation, enrichment, and pathway analyses to identify the leading biological pathways that operated under LAQ treatment were performed by Ingenuity Pathways Analysis software (www.ingenuity.com).
ANOVA analysis was used to compare PBMC gene expression after 1, 6 or 24 month of LAQ treatment with baseline gene expression.
For each time point inventors performed analysis source of variation in dataset. (FIG. 1). Age, gender and batch effects were considered as confounders regarding LAQ or Placebo related changes. For each time point genes associated with Placebo effect were evaluated and excluded from further analysis. […]

CCN(C(=O)c1c(O)c2c(Cl)cccc2n(C)c1=O)c1ccccc1 [LAQ, 5-chloro-N-ethyl-4-hydroxy-1-methyl-2-oxo-N-phenyl-1,2-dihydroquinoline-3-carboxamide]
Fold-Change (4.0 vs. 0.0) (LOC729143 /// MPRIP expression): −1.213
Fold-Change (4.0 vs. 0.0) (LOH3CR2A expression): −1.216
Fold-Change (4.0 vs. 0.0) (LPIN1 expression): −1.21
Fold-Change (4.0 vs. 0.0) (LPO expression): −1.213
Fold-Change (1.0 vs. 0.0) (LTBP1 202728_s_at): −1.48
Fold-Change (1.0 vs. 0.0) (LTBP1 202729_s_at): −1.71
Fold-Change (4.0 vs. 0.0) (LTBP4 expression): −1.202
Fold-Change (4.0 vs. 0.0) (MAGEL2 expression): −1.218
Fold-Change (4.0 vs. 0.0) (MAP2K5 expression): −1.213
Fold-Change (4.0 vs. 0.0) (MAP2 expression): −1.201
Fold-Change (1.0 vs. 0.0) (MARCH2 210075_at): −1.3917
Fold-Change (4.0 vs. 0.0) (MASP1 expression): −1.2109
Fold-Change (4.0 vs. 0.0) (MAST1 expression): −1.216
Fold-Change (1.0 vs. 0.0) (MAX 209331_s_at): −1.245
Fold-Change (4.0 vs. 0.0) (MBD2 expression): −1.209
Fold-Change (4.0 vs. 0.0) (MBNL2 expression): −1.212
Fold-Change (4.0 vs. 0.0) (MBP expression): −1.217
Fold-Change (4.0 vs. 0.0) (MC4R expression): −1.206
Fold-Change (4.0 vs. 0.0) (MCM10 expression): −1.202
Fold-Change (4.0 vs. 0.0) (METTL10 expression): −1.207
Fold-Change (4.0 vs. 0.0) (MFAP2 expression): −1.202
Fold-Change (4.0 vs. 0.0) (MFAP4 expression): −1.2209
Fold-Change (4.0 vs. 0.0) (MLXIPL expression): −1.224
Fold-Change (1.0 vs. 0.0) (MMRN1 205612_at): −1.376
Fold-Change (4.0 vs. 0.0) (MOGAT2 expression): −1.214
Fold-Change (4.0 vs. 0.0) (MPL expression): −1.207
Fold-Change (4.0 vs. 0.0) (MT1E /// MT1H /// MT1M expression): −1.214
Fold-Change (1.0 vs. 0.0) (MTMR1 213511_s_at): −1.098
Fold-Change (4.0 vs. 0.0) (MTSS1L expression): −1.22
Fold-Change (4.0 vs. 0.0) (MTSS1 expression): −1.219
Fold-Change (4.0 vs. 0.0) (MYF6 expression): −1.216
Fold-Change (4.0 vs. 0.0) (MYL10 expression): −1.196
Fold-Change (4.0 vs. 0.0) (MYO3A expression): −1.197
Fold-Change (4.0 vs. 0.0) (NAPA expression): −1.202
Fold-Change (4.0 vs. 0.0) (NARFL expression): −1.199
Fold-Change (4.0 vs. 0.0) (NCR2 expression): −1.196
Fold-Change (1.0 vs. 0.0) (NKTR 202380_s_at): −1.123
Fold-Change (4.0 vs. 0.0) (NNMT expression): −1.21
Fold-Change (4.0 vs. 0.0) (NTRK2 expression): −1.209
Fold-Change (4.0 vs. 0.0) (NXN expression): −1.214
Fold-Change (4.0 vs. 0.0) (NXPH3 expression): −1.208
Fold-Change (4.0 vs. 0.0) (OBSL1 expression): −1.201
Fold-Change (4.0 vs. 0.0) (OR2S2 expression): −1.196
Fold-Change (4.0 vs. 0.0) (OR10H3 expression): −1.2243
Fold-Change (4.0 vs. 0.0) (ORC1L expression): −1.224
Fold-Change (4.0 vs. 0.0) (P2RY1 expression): −1.214
Fold-Change (4.0 vs. 0.0) (PARD6B expression): −1.207
Fold-Change (4.0 vs. 0.0) (PAWR expression): −1.2152
Fold-Change (1.0 vs. 0.0) (PCDH24 220186_s_at): −1.121
Fold-Change (4.0 vs. 0.0) (PCIF1 expression): −1.223
Fold-Change (1.0 vs. 0.0) (PCNP 217816_s_at): −1.135
Fold-Change (4.0 vs. 0.0) (PCP4 expression): −1.203
Fold-Change (4.0 vs. 0.0) (PDE6H expression): −1.203
Fold-Change (1.0 vs. 0.0) (PF4 206390_x_at): −1.764
Fold-Change (4.0 vs. 0.0) (PHF20L1 expression): −1.208
Fold-Change (4.0 vs. 0.0) (PI15 expression): −1.216
Fold-Change (4.0 vs. 0.0) (PKLR expression): −1.219
Fold-Change (4.0 vs. 0.0) (PLA2G5 expression): −1.221
Fold-Change (4.0 vs. 0.0) (PLCD1 expression): −1.2171
Fold-Change (4.0 vs. 0.0) (PLCE1 expression): −1.225
Fold-Change (4.0 vs. 0.0) (PLSCR2 expression): −1.217
Fold-Change (4.0 vs. 0.0) (PLXNA2 expression): −1.199
Fold-Change (4.0 vs. 0.0) (PNLIPRP1 expression): −1.207
Fold-Change (4.0 vs. 0.0) (POLR3G expression): −1.22
Fold-Change (1.0 vs. 0.0) (POM121 /// POM121C 212178_s_at): −1.091
Fold-Change (1.0 vs. 0.0) (PPBP 214146_s_at): −1.46
Fold-Change (4.0 vs. 0.0) (PPP2R3A expression): −1.197
Fold-Change (4.0 vs. 0.0) (PRAMEF1 /// PRAMEF2 expression): −1.221
Fold-Change (4.0 vs. 0.0) (PRELP expression): −1.214
Fold-Change (1.0 vs. 0.0) (PRKAR2B 203680_at): −1.876
Fold-Change (4.0 vs. 0.0) (PRLR expression): −1.196
Fold-Change (4.0 vs. 0.0) (PRPH expression): −1.204
Fold-Change (4.0 vs. 0.0) (PSG3 expression): −1.202
Fold-Change (1.0 vs. 0.0) (PSMD11 208776_at): −1.122
Fold-Change (1.0 vs. 0.0) (PTCRA 211252_x_at): −1.389
Fold-Change (4.0 vs. 0.0) (RAB40C expression): −1.207
Fold-Change (4.0 vs. 0.0) (RANBP3 expression): −1.2033
Fold-Change (4.0 vs. 0.0) (RAPGEFL1 expression): −1.218
Fold-Change (4.0 vs. 0.0) (RARG expression): −1.212
Fold-Change (4.0 vs. 0.0) (RASGRP2 expression): −1.211
Fold-Change (4.0 vs. 0.0) (RBMY2FP expression): −1.211
Fold-Change (4.0 vs. 0.0) (RDH8 expression): −1.215
